# Measured values taken from PMC4844700, “Rifampin phosphotransferase is an unusual antibiotic resistance kinase” (Nature Communications, 2016).
# Chains of the proteins cited; added tags and fusions are not shown.
# UniProt A0A0X1KHF9: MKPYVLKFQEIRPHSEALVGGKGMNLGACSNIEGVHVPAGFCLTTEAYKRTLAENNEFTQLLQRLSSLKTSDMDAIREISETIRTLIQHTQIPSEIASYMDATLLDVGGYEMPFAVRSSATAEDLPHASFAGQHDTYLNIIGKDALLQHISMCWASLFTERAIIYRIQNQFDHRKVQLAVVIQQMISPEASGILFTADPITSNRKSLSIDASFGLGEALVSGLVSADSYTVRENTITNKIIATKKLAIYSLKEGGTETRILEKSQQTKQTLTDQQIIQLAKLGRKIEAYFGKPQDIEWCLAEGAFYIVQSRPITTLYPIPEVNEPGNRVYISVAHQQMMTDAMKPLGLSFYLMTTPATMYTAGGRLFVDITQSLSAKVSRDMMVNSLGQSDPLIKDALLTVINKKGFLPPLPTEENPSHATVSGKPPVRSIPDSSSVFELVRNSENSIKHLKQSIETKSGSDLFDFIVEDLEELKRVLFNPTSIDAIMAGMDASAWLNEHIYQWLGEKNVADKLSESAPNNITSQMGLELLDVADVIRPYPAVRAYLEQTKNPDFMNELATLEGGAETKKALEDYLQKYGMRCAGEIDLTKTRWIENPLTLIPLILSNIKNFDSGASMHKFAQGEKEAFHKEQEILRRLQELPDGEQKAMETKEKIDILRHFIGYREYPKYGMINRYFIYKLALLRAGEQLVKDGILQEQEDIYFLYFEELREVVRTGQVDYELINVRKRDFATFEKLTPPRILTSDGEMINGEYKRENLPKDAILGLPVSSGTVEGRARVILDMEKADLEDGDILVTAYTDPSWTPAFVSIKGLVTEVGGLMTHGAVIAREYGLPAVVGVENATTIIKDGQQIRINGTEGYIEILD
# No constants are given. Whether binding was seen depends on the method and setting.
# Key:
# [1] = target: Rifampin phosphotransferase from Listeria monocytogenes (RPH-Lm) (L. monocytogenes str. 4b F2365); test: SAXS; both purified
# [2] = target: Rifampin phosphotransferase from Listeria monocytogenes (RPH-Lm) (L. monocytogenes str. 4b F2365); test: SEC; both purified
substance,measurement,setting,value
Rifampin phosphotransferase from Listeria monocytogenes (RPH-Lm) (from UniProt A0A0X1KHF9) (enzyme),binding,[1],no binding (tested: 2–6 mg ml^−1)
same,binding,[2],no binding
